Experimental data taken from PMC7933275.
No constants are given. Whether binding was seen depends on the method and setting. In cells and extracts the contact can be indirect. Here binding means that the protein was enriched with, or labelled near, the bait; the list need not be complete. Where a sequence is shown, tags or fusion partners need not be part of it.

Target: T1, ubiquitin-specific protease 53 (USP53) with GFP, from the lentiviral vector pLenti-GIII-CMV-USP53-GFP-2A-Puro (UniProt Q70EK8)
T1 sequence: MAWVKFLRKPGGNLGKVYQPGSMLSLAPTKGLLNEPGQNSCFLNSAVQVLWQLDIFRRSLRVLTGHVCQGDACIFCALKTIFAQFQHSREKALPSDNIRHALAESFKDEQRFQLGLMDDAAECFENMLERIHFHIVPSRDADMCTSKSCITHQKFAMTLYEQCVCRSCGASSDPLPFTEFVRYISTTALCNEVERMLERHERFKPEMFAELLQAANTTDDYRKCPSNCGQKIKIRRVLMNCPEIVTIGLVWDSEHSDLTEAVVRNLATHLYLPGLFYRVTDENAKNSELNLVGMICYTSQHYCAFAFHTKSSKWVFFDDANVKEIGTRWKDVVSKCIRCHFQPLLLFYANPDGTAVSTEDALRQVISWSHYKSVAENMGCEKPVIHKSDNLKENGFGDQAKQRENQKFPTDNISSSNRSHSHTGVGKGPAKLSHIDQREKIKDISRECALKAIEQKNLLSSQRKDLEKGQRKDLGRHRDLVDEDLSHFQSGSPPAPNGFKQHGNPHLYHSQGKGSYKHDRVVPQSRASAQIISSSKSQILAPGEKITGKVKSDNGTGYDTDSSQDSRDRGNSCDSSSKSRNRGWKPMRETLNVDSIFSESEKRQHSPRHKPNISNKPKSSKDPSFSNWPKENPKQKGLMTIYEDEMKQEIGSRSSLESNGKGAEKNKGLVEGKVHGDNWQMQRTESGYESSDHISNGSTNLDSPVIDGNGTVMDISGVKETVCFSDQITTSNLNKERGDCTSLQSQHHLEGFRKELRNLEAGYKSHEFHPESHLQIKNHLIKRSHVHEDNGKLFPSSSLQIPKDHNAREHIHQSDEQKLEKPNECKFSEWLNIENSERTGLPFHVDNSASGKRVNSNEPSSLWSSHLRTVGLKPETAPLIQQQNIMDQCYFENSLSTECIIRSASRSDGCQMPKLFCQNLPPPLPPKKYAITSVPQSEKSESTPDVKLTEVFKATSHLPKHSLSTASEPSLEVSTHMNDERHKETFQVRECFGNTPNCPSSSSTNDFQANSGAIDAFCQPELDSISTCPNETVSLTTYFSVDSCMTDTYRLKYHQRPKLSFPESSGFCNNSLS
Assay: affinity purification with mass spectrometry; hBMSCs with lentiviral control vector or lentiviral vector-USP53, osteogenic induction medium for 4 days, MG132 (10 μM) for 6 h, passive lysis buffer; about 500 μg total protein incubated with antibody against GFP or IgG control at 4 °C overnight; differential bands of the InstantBlue-stained SDS-PAGE gel analysed by LC-MS/MS

B1: F-box only protein 31 (FBXO31), endogenous in hBMSCs (protein, UniProt Q5XUX0 1-539)
chain: MAVCARLCGVGPSRGCRRRQQRRGPAETAAADSEPDTDPEEERIEASAGVGGGLCAGPSPPPPRCSLLELPPELLVEIFASLPGTDLPSLAQVCTKFRRILHTDTIWRRRCREEYGVCENLRKLEITGVSCRDVYAKLLHRYRHILGLWQPDIGPYGGLLNVVVDGLFIIGWMYLPPHDPHVDDPMRFKPLFRIHLMERKAATVECMYGHKGPHHGHIQIVKKDEFSTKCNQTDHHRMSGGRQEEFRTWLREEWGRTLEDIFHEHMQELILMKFIYTSQYDNCLTYRRIYLPPSRPDDLIKPGLFKGTYGSHGLEIVMLSFHGRRARGTKITGDPNIPAGQQTVEIDLRHRIQLPDLENQRNFNELSRIVLEVRERVRQEQQEGGHEAGEGRGRQGPRESQPSPAQPRAEAPSKGPDGTPGEDGGEPGDAVAAAEQPAQCGQGQPFVLPVGVSSRNEDYPRTCRMCFYGTGLIAGHGFTSPERTPGVFILFDEDRFGFVWLELKSFSLYSRVQATFRNADAPSPQAFDEMLKNIQSLTS
binding: binds
